Measured values reported in paper doi:10.1101/2023.09.06.556408.

The chains behind the UniProt entries cited, without tags or fusion partners. Where a name states a change or a piece, a line headed by the entry shows the natural chain unless it says otherwise.
UniProt P00481: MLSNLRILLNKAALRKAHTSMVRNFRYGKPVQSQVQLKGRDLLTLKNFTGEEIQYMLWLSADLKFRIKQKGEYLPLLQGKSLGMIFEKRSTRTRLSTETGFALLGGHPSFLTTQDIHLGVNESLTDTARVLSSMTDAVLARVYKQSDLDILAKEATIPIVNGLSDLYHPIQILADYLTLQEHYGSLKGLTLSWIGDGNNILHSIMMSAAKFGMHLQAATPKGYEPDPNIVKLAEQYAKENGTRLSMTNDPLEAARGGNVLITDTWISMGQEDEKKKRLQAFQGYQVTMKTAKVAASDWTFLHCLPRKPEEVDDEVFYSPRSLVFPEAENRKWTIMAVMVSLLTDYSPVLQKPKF
UniProt Q15388: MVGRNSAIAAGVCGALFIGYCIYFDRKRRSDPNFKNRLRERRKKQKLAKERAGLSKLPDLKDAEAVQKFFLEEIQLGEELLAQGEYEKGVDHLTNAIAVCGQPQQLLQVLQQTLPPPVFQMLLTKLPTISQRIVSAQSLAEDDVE

Target: ornithine transcarbamylase (OTC)-V5 (rat) (UniProt P00481)
Assay: co-IP

Molecule: TOMM20 (from UniProt Q15388 1-145)
- binding: binds

B1: TOMM40 (protein, UniProt O96008 1-361)
chain: MGNVLAASSPPAGPPPPPAPALVGLPPPPPSPPGFTLPPLGGSLGAGTSTSRSSERTPGAATASASGAAEDGACGCLPNPGTFEECHRKCKELFPIQMEGVKLTVNKGLSNHFQVNHTVALSTIGESNYHFGVTYVGTKQLSPTEAFPVLVGDMDNSGSLNAQVIHQLGPGLRSKMAIQTQQSKFVNWQVDGEYRGSDFTAAVTLGNPDVLVGSGILVAHYLQSITPCLALGGELVYHRRPGEEGTVMSLAGKYTLNNWLATVTLGQAGMHATYYHKASDQLQVGVEFEASTRMQDTSVSFGYQLDLPKANLLFKGSVDSNWIVGATLEKKLPPLPLTLALGAFLNHRKNKFQCGFGLTIG
- binding: binds

Results are given in words; binding and its absence hold for the method and conditions named. Binding seen in cells or lysates may run through a third protein. Binding can be weak; no strength is given.
